In PubChem BioAssay AID504847 (National Center for Advancing Translational Sciences (NCATS), 2011):
About 3,700 (0.93%) of roughly 400,000 compounds were called active. Inconclusive results, whose numbers are uncertain, are shown with a selection of clear calls. Calls come from the whole dose curve; as a rule, active = well fitted inhibition curve with a large enough effect; inconclusive = small, poorly fitted or top-dose-only effect, or another doubt; inactive = no such curve, though single readings can be large or run the other way. Where the call is inconclusive, the potency comes from a doubtful curve fit. Some compounds were tested as several samples or in several runs, with calls that do not always agree.

Protein sequences, listed by entry. Tags and fused reporters are not part of them. Lines headed by an entry give the natural chain unless they say otherwise; changes in a name come on top.
UniProt P11473: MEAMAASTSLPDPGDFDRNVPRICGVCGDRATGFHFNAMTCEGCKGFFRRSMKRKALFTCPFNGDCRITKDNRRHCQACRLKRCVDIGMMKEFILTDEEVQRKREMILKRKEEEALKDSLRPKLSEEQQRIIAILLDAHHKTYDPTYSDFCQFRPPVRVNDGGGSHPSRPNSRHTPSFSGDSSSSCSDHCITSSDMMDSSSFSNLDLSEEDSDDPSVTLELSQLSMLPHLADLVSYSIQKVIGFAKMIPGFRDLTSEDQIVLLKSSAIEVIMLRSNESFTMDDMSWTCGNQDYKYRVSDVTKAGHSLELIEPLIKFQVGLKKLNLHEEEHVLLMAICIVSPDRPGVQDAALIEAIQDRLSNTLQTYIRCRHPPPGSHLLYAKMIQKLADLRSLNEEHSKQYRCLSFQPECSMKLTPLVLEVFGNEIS

Biological target: Vitamin D3 receptor (Homo sapiens) (UniProt P11473)
Assay: Inhibitors of the vitamin D receptor (VDR): qHTS
Conditions: VDR-SRC2-3 peptide fluorescence polarization, 2 h; max response, negative = inhibition: hits give low values
Source text: The vitamin D receptor (VDR) is a ligand-activated transcription factor and is partially responsible for the regulation of the endocrine system. This includes the transcriptional regulation of genes involved in the production of the parathyroid hormone (PTH) and the regulation of the blood calcium level. High levels of PHT can cause hypercalcemia in the case of primary and tertiary hyperparathyroidism. The VDR-mediated gene regulation, activated by its ligand 1,25-dihydroxyvitamin D3 (1,25-(OH)2D3), is governed by the recruitment of coactivators. Our hypothesis is that small molecules, with the ability to inhibit the interaction between VDR and certain coactivators, are able to selectively modulate VDR-mediated transcription. Our long term objective is the application these VDR-coactivator inhibitors to study the role of VDR-coactivator binding for specific VDR regulated genes. Ultimately, these molecules can be developed into new treatments for hypercalcemic hyperparathyroidism. No small molecule or non-peptide inhibitors are known for the VDR-coactivator interaction.
In a collaboration between the University of Wisconsin, Milwaukee and the NIH Chemical Genomics Center (NCGC) a HTS-compatible enzymatic assay was developed. The assay uses fluorescence polarization as its read-out to measure the inhibition between VDR and coregulator peptide SRC2-3 exerted by small molecules. This assay was used to screen the NIH Molecular Libraries Small Molecule Repository (MLSMR).
NIH Chemical Genomics Center [NCGC]
NIH Molecular Libraries Probe Centers Network [MLPCN]
Assay Submitter (PI): Alexander Arnold, University of Wilwaukee
Both solutions are kept at 4 deg C and protected from light and dispensed using a Kalypsys dispenser. Then 23nl of compounds and controls are added with Kalypsys pintool. […] Plate is centrifuged at 1000 RPM for 15 seconds to remove any residual bubbles. The plate is then incubate at ambient room temperature for 2 hours.
% is set by controls: 0 for no effect and ±100 for the full control effect; potency is the fitted concentration of half-maximal effect.

Question: With `O=S1(=O)CCO[C@H]2Cc3ccccc3[C@H]2N1Cc1ccccc1F` as the molecule, how does the Potency read?
Answer: inconclusive: 100 µM [inhibitor, single point]

Question: Which Potency does the source give for `COc1ccc(-c2c(-c3cc(OC)cc(OC)c3)n(C)c3ccc(-c4ccc(OC)nc4)cc23)cc1` here?
Answer: inconclusive: 0.708 µM [inhibitor, full curve, poor fit]

Question: With `Cc1cccc(C)c1NC(=O)COC(=O)Cc1ccsc1` as the molecule, how does the max response, negative = inhibition read?
Answer: inactive: -17.4%

Question: How did the Potency turn out when `O=C(Nc1cccc(Cl)c1)c1cnn2cccnc12` was run?
Answer: inconclusive: 17.8 µM [inhibitor, partial curve, poor fit]

Question: For `COC(=O)c1ccc(NC(=S)NNC(=O)CC(C)C)cc1`, which max response, negative = inhibition is on record?
Answer: inactive: -19.9%

Question: How did the Potency turn out when `NC(=O)COC(=O)C12CC3CC(CC(O)(C3)C1)C2` was run?
Answer: inconclusive: 56.2 µM [inhibitor, partial curve, poor fit]

Question: How did the Potency turn out when `Cc1nc(-c2ccc(S(=O)(=O)N3CCN(c4cccc(C)c4C)CC3)cc2)co1` was run?
Answer: inconclusive: 35.5 µM [inhibitor, partial curve, poor fit]

Question: How did the max response, negative = inhibition turn out when `O=C(O)c1ccc(/C=N/NC(=S)NCCN2CCOCC2)cc1` was run?
Answer: inactive: 0%

Question: Which Potency does the source give for `S=c1[nH]cc(-c2ccc(Cl)cc2)n1-c1ccccc1` here?
Answer: inconclusive: 0.631 µM [inhibitor, full curve, poor fit]

Question: For `c1ccc(Nc2ncncc2-c2ccoc2)cc1`, which Potency is on record?
Answer: active: 56.2 µM

Question: Which Potency does the source give for `C#CCOc1ccc(/C=C2/C(=O)N(c3cccc(C(=O)O)c3)N=C2C)cc1OC` here?
Answer: inconclusive: 79.4 µM [inhibitor, partial curve, poor fit]

Question: How did the Potency turn out when `Fc1ccc(Nc2ncnc3ccc(-c4ccoc4)cc23)cc1` was run?
Answer: active: 39.8 µM

Question: For `O=C(CN(CCc1ccccc1)C(=O)CNS(=O)(=O)c1ccccc1)NCc1ccco1`, which max response, negative = inhibition is on record?
Answer: inactive: -21.3%

Question: With `CC(=O)c1ccc(N2Cc3ccccc3C3(CCOCC3)C2=N)cc1` as the molecule, how does the Potency read?
Answer: inconclusive: 70.8 µM [inhibitor, single point]

Question: For `COc1ccc(Cl)cc1CC=NNC(=O)c1cccc(C)c1O`, which Potency is on record?
Answer: inconclusive: 89.1 µM [inhibitor, single point]

Question: For `CC1C(=O)Nc2ccc(S(=O)(=O)N3CCN(c4cccc(Cl)c4)CC3)cc2NC1=O` (stereo not drawn), which max response, negative = inhibition is on record?
Answer: inactive: -21.4%

Question: With `CC(C)c1cnc2c(c1SCC(=O)N1CCCCC1)c(=O)n(C)c(=O)n2C` as the molecule, how does the max response, negative = inhibition read?
Answer: inactive: 19.4%

Question: Which Potency does the source give for `CCOC(=O)c1ccc(NC(=O)c2ccccc2[N+](=O)[O-])cc1` here?
Answer: inconclusive: 4.47 µM [inhibitor, full curve, poor fit]

Question: Which Potency does the source give for `COc1ccc(/C=C/C(=O)Nc2sc(C)c(C)c2C(=O)O)cc1` here?
Answer: inconclusive: 100 µM [inhibitor, partial curve, poor fit]

Question: How did the Potency turn out when `COc1ccc(C2/C=C\CNCC(=O)N2Cc2ccc(F)cc2)cc1` (stereo not drawn) was run?
Answer: inconclusive: 31.6 µM [inhibitor, partial curve, poor fit]

Question: How did the Potency turn out when `CN(C)CCC(=O)c1cccc(Br)c1` was run?
Answer: inconclusive: 35.5 µM [inhibitor, single point]

Question: With `O=C(CNC(=O)c1ccccc1)Sc1ccccc1` as the molecule, how does the Potency read?
Answer: active: 44.7 µM

Question: With `COc1ccc(C(=O)NCCc2cn3ccccc3n2)cc1` as the molecule, how does the Potency read?
Answer: inconclusive: 28.2 µM [inhibitor, single point]

Question: `Nc1nnc(SCC(=O)N2CCCCC2)s1` was tested. Which max response, negative = inhibition did it give?
Answer: inactive: -3.54%

Question: For `CC1Oc2ccccc2C=C1/C=C1/SC(N2CCOCC2)=NC1=O` (stereo not drawn), which max response, negative = inhibition is on record?
Answer: inactive: -18.7%

Question: With `O=S(=O)(/N=C(/Sc1ccccc1)c1ccccc1)c1ccccc1` as the molecule, how does the Potency read?
Answer: active: 79.4 µM

Question: Which Potency does the source give for `CCOC(=O)N1C/C(=C\c2ccccc2)C(=O)/C(=C/c2ccccc2)C1` here?
Answer: inconclusive: 5.62 µM [inhibitor, full curve, poor fit]

Question: `COc1ccccc1CCC(=O)NNC(=O)c1cccs1` was tested. Which Potency did it give?
Answer: inconclusive: 25.1 µM [inhibitor, partial curve]

Question: Which Potency does the source give for `O=C1CSC(=S)N1/N=C/c1cc(Br)c(O)c(Br)c1` here?
Answer: inconclusive: 0.794 µM [inhibitor, full curve, poor fit]

Question: `COC(=O)N1C(c2ccccc2)=Cc2ccccc2C1C1(C(=O)OC)CCCC1=O` (stereo not drawn) was tested. Which Potency did it give?
Answer: inconclusive: 50.1 µM [inhibitor, partial curve]

Question: With `C=CCN1CCN(C(c2ccccc2)c2nnnn2CCC(C)C)CC1` (stereo not drawn) as the molecule, how does the Potency read?
Answer: inconclusive: 4.47 µM [inhibitor, partial curve, poor fit]

Question: With `CN1CCN(S(=O)(=O)c2cccc(C(=O)NCCC3=CCCCC3)c2)CC1` as the molecule, how does the max response, negative = inhibition read?
Answer: inactive: -8.1%

Question: `COc1cc(/C=C2\SC(=S)N(NS(=O)(=O)c3ccccc3)C2=O)cc(OC)c1OC` was tested. Which Potency did it give?
Answer: inconclusive: 1.26 µM [inhibitor, full curve, poor fit]

Question: `N#Cc1cnc2c(-c3ccccc3)c(-c3ccccc3)nn2c1N` was tested. Which Potency did it give?
Answer: inconclusive: 79.4 µM [inhibitor, partial curve, poor fit]

Question: For `CC(=O)Oc1cccc(N2C(=O)C3C4C=CC(C4=C(C)C)C3C2=O)c1` (stereo not drawn), which Potency is on record?
Answer: inconclusive: 28.2 µM [inhibitor, single point]

Question: How did the Potency turn out when `COC(=O)C1(C(=O)OC)CC2=C[C@H](CC2=O)Cc2ccccc2[C@@H]1C[N+](=O)[O-]` was run?
Answer: active: 50.1 µM

Question: How did the Potency turn out when `COc1ccc(C(=O)/C=C/c2ccccc2)cc1` was run?
Answer: active: 25.1 µM

Question: For `Cc1ccc(-c2onc3ccc(C=O)cc23)cc1`, which max response, negative = inhibition is on record?
Answer: inactive: 23.3%

Question: With `C#CCN1C(C)=C(C(=O)OC)C(c2cccc([N+](=O)[O-])c2)C(C(=O)OCC)=C1C` (stereo not drawn) as the molecule, how does the Potency read?
Answer: inconclusive: 100 µM [inhibitor, partial curve, poor fit]

Question: Which Potency does the source give for `Cc1c(NC(=O)Nc2ccc([N+](=O)[O-])cc2)c(=O)n(-c2ccccc2)n1C` here?
Answer: inconclusive: 22.4 µM [inhibitor, partial curve, poor fit]

Question: For `Cn1cc(/C=C2\SC(=O)NC2=S)c2ccccc21`, which Potency is on record?
Answer: inconclusive: 22.4 µM [inhibitor, full curve, poor fit]

Question: `CCCCC(=O)NC(=S)NNS(=O)(=O)c1ccccc1` was tested. Which Potency did it give?
Answer: inconclusive: 79.4 µM [inhibitor, single point]

Question: Which max response, negative = inhibition does the source give for `N#Cc1cc(N2CCCCC2)c([N+](=O)[O-])cc1C#N` here?
Answer: inactive: 2.86%

Question: Which Potency does the source give for `COc1ccc(Br)cc1C(C[N+](=O)[O-])c1c(N)n(C)c(=O)n(C)c1=O` (stereo not drawn) here?
Answer: inconclusive: 79.4 µM [inhibitor, partial curve, poor fit]

Question: With `O=S(=O)(NN1CCOCC1)c1cc(Cl)cc(Cl)c1O` as the molecule, how does the Potency read?
Answer: inconclusive: 79.4 µM [inhibitor, partial curve, poor fit]

Question: For `CCOc1ccc(N2C(=O)S/C(=C\c3ccc(O)c(OC)c3)C2=O)cc1`, which Potency is on record?
Answer: inconclusive: 0.631 µM [inhibitor, full curve, poor fit]

Question: How did the Potency turn out when `COc1ccccc1N(O)C1CC(=O)N(c2ccc(F)cc2)C1=O` (stereo not drawn) was run?
Answer: inconclusive: 89.1 µM [inhibitor, single point]

Question: How did the Potency turn out when `Cc1nc([N+](=O)[O-])nn1C12CC3CC(CC(Br)(C3)C1)C2` was run?
Answer: active: 20 µM

Question: Which Potency does the source give for `O=CN1CCc2scc[n+]2-c2ccccc21` here?
Answer: inconclusive: 63.1 µM [inhibitor, partial curve, poor fit]

Question: How did the Potency turn out when `O=C1C=CC2(C=C1)O[C@H](Cc1ccccc1)[C@@H](Cc1ccccc1)O2` was run?
Answer: active: 14.1 µM

Question: How did the max response, negative = inhibition turn out when `CCOc1ccc(NC(=O)CN(c2ccc(CC)cc2)S(=O)(=O)c2c(C)noc2C)cc1` was run?
Answer: inactive: -1.72%

Question: `COc1ccccc1CNC(=O)CN(C)S(=O)(=O)c1cccc2cccnc12` was tested. Which max response, negative = inhibition did it give?
Answer: inactive: 22.1%

Question: Which Potency does the source give for `CCOC(=O)C1(CCOc2ccccc2)CCN(Cc2cccc(OCCO)c2)CC1` here?
Answer: inconclusive: 89.1 µM [inhibitor, single point]

Question: `Cc1c(NS(=O)(=O)c2cccc3nsnc23)c(=O)n(-c2ccccc2)n1C` was tested. Which Potency did it give?
Answer: inconclusive: 100 µM [inhibitor, partial curve, poor fit]

Question: `Cc1cc(NC(=O)c2cc(C(C)(C)C)oc2C)no1` was tested. Which Potency did it give?
Answer: inconclusive: 89.1 µM [inhibitor, single point]

Question: How did the Potency turn out when `Cc1nc2cc(N)ccc2n1-c1ccccc1` was run?
Answer: inconclusive: 22.4 µM [inhibitor, partial curve, poor fit]

Question: Which Potency does the source give for `Nc1ccccc1SCC(=O)Nc1ccc(N2CCOCC2)cc1` here?
Answer: inconclusive: 39.8 µM [inhibitor, single point]

Question: `COc1ccc(NS(=O)(=O)c2cccc(C(=O)NNC(=O)CNC(=O)c3cccc(C)c3)c2)cc1` was tested. Which Potency did it give?
Answer: inconclusive: 89.1 µM [inhibitor, single point]

Question: For `Cc1ccc(C)c(NC(=O)CSc2c3c(nc4ccc(Cl)cc24)CCCC3)c1`, which max response, negative = inhibition is on record?
Answer: inactive: -20.2%

Question: With `Cc1ccc(/C=N/c2sc3c(c2C#N)CCC3)s1` as the molecule, how does the max response, negative = inhibition read?
Answer: inactive: -2.78%

Question: `CCOc1cc(/C=C2/C(=O)ON=C2C)ccc1OCc1ccc(F)cc1` was tested. Which Potency did it give?
Answer: active: 79.4 µM

Question: For `O=C(O)c1ccccc1NC(=S)NC(=O)c1sc2ccccc2c1Cl`, which Potency is on record?
Answer: inconclusive: 63.1 µM [inhibitor, partial curve, poor fit]

Question: Which max response, negative = inhibition does the source give for `COc1ccccc1C(=O)NNC(=O)CCCN1C(=O)/C(=C/c2cccs2)SC1=S` here?
Answer: inactive: -5.17%

Question: Which Potency does the source give for `CCN(C(=O)COC(=O)C1CC1C)c1c(N)n(Cc2ccccc2)c(=O)[nH]c1=O` (stereo not drawn) here?
Answer: inconclusive: 89.1 µM [inhibitor, single point]

Question: `Cc1c(C(=O)N2CCN(C3CCS(=O)(=O)C3)CC2)oc2c(F)cccc12` (stereo not drawn) was tested. Which Potency did it give?
Answer: inconclusive: 100 µM [inhibitor, single point]

Question: Which Potency does the source give for `O=C(CNS(=O)(=O)c1ccc2ccccc2c1)Nc1ccc(F)c(F)c1F` here?
Answer: inconclusive: 15.8 µM [inhibitor, single point]

Question: Which max response, negative = inhibition does the source give for `CCc1c(C)sc(NC(=O)c2cc(C3CC3)on2)c1C#N` here?
Answer: inactive: -10.8%

Question: How did the Potency turn out when `C=CCOc1ccc(/C=C2\N=C(C)OC2=O)cc1OC` was run?
Answer: inconclusive: 79.4 µM [inhibitor, partial curve, poor fit]
